{"source": "PubChem BioAssay AID602196 (INSERM, 2012)", "screen": "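Modifiers of cisplatin sensitivity in A549 cells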", "cells": "human A549 lung cancer cells", "knock-down reagent": "siRNA pair against human genes", "duration": "48 h transfection before cisplatin; time from cisplatin to read-out not stated", "treatment": "cisplatin at a dose killing half of control-siRNA cells; exact dose and duration not given", "detection": "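Cisplatin cell death as a shift from the 50% death seen with control siRNA; siRNAs toxic or growth-blocking alone scored 0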", "reading the numbers": "two-siRNA summed score (-2 to +2): higher = both siRNAs protect from cisplatin killing; -2 means both sensitise; mean protection from cisplatin (shift in death): higher = protection from cisplatin killing", "hit rule": "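Each siRNA scores 0 if harmful alone by LDH or WST-1, otherwise +1 if it reduces and -1 if it increases cisplatin killing; a gene is active when both siRNAs agree (sum +2 or -2)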", "calls": "active = both siRNAs shift cisplatin killing the same way; inactive = no consistent shift, or siRNA harmful alone", "note": "Here is one part, drawn at random, of about 23,000 deposited reagents. Of all reagents, 455 (2%) got an active call. 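Active includes both protection and sensitisation; some change values fall well beyond the stated -50 to +50 range.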 Entries without a mark were called inactive. Not all columns of the deposit are shown. Not stated in the record: the amount of reagent."}
{"target": "ZNF696", "two-siRNA summed score (-2 to +2)": 0, "mean protection from cisplatin (shift in death) (%)": 1}
{"target": "HAUS6", "two-siRNA summed score (-2 to +2)": 0, "mean protection from cisplatin (shift in death) (%)": 6.2}
{"target": "QTRT2", "two-siRNA summed score (-2 to +2)": 0, "mean protection from cisplatin (shift in death) (%)": -0.2}
{"target": "FHDC1", "two-siRNA summed score (-2 to +2)": 0, "mean protection from cisplatin (shift in death) (%)": 6.1}
{"target": "LCE2C", "two-siRNA summed score (-2 to +2)": 0, "mean protection from cisplatin (shift in death) (%)": 3.7}
{"target": "LOC137814", "two-siRNA summed score (-2 to +2)": 0, "mean protection from cisplatin (shift in death) (%)": 5.3}
{"target": "LOC390908", "two-siRNA summed score (-2 to +2)": 0, "mean protection from cisplatin (shift in death) (%)": 7.5}

2 entries from above, set out differently.
{"target":"HAUS6","two-siRNA summed score (-2 to +2)":0,"mean protection from cisplatin (shift in death) (%)":6.2}
{"target":"QTRT2","two-siRNA summed score (-2 to +2)":0,"mean protection from cisplatin (shift in death) (%)":-0.2}

The list goes on.
{"target": "LOC401070", "two-siRNA summed score (-2 to +2)": 1, "mean protection from cisplatin (shift in death) (%)": 15.7}
{"target": "LOC401904", "two-siRNA summed score (-2 to +2)": 1, "mean protection from cisplatin (shift in death) (%)": 15.9}
{"target": "WDR76", "two-siRNA summed score (-2 to +2)": 0, "mean protection from cisplatin (shift in death) (%)": 9}
{"target": "CXCL9", "two-siRNA summed score (-2 to +2)": 0, "mean protection from cisplatin (shift in death) (%)": -16.1}
{"target": "CSMD2", "two-siRNA summed score (-2 to +2)": 0, "mean protection from cisplatin (shift in death) (%)": 1.1}
